Results as given in article PMC8617943.
Results are given in words; binding and its absence hold for the method and conditions named. In cells and extracts the contact can be indirect. Some binding calls cover weakened binding; strength is not graded here.

The chains behind the UniProt entries cited, without tags or fusion partners.
UniProt P10415: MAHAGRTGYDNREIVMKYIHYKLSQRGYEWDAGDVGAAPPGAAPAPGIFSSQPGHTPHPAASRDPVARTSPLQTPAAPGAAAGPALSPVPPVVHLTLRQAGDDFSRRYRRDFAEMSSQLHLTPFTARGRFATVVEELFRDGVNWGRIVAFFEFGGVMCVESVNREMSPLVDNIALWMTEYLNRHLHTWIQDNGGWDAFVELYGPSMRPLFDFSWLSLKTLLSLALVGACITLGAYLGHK

Experiments:
Test in all cases: co-IP; endogenous proteins in Ca Ski whole cell lysates precleared with Protein A/G PLUS-Agarose; IP with anti-Bcl-2 or anti-Beclin 1 monoclonal antibody or control rabbit IgG, 2 h at room temperature, captured on protein A/G agarose, western blot; cells untreated or treated with RCE-4 8 μmol/L for 6, 12 and 24 h, with or without ATG 4B siRNA
[1] = target: Beclin 1 (human (endogenous in Ca Ski)) (UniProt Q14457)
[2] = target: Bcl-2 (human (endogenous in Ca Ski)) (UniProt P10415)
[3] = target: Bcl-2 (human (endogenous in Ca Ski)), P10415; conditions: remark: other sources report otherwise

Row | binding [1] | binding [2] | binding [3] | Binder
1 | binds | binds | – | ATG 4B (protein, UniProt Q9Y4P1 1-393) MDAATLTYDTLRFAEFEDFPETSEPVWILGRKYSIFTEKDEILSDVASRLWFTYRKNFPAIGGTGPTSDTGWGCMLRCGQMIFAQALVCRHLGRDWRWTQRKRQPDSYFSVLNAFIDRKDSYYSIHQIAQMGVGEGKSIGQWYGPNTVAQVLKKLAVFDTWSSLAVHIAMDNTVVMEEIRRLCRTSVPCAGATAFPADSDRHCNGFPAGAEVTNRPSPWRPLVLLIPLRLGLTDINEAYVETLKHCFMMPQSLGVIGGKPNSAHYFIGYVGEELIYLDPHTTQPAVEPTDGCFIPDESFHCQHPPCRMSIAELDPSIAVGFFCKTEDDFNDWCQQVKKLSLLGGALPMFELVELQPSHLACPDVLNLSLDSSDVERLERFFDSEDEDFEILSL
2 | – | – | binds | ATG 5, Q9H1Y0 1-275 (protein) MTDDKDVLRDVWFGRIPTCFTLYQDEITEREAEPYYLLLPRVSYLTLVTDKVKKHFQKVMRQEDISEIWFEYEGTPLKWHYPIGLLFDLLASSSALPWNITVHFKSFPEKDLLHCPSKDAIEAHFMSCMKEADALKHKSQVINEMQKKDHKQLWMGLQNDRFDQFWAINRKLMEYPAEENGFRYIPFRIYQTTTERPFIQKLFRPVAADGQLHTLGDLLKEVCPSAIDPEDGEKKNQVMIHGIEPMLETPLQWLSEHLSYPDNFLHISIIPQPTD
